According to PMC7033600:
Results are given in words; binding and its absence hold for the method and conditions named. In cells and extracts the contact can be indirect. Some entries that bind do so weakly or less than the wild type. For some assays here: Sequences can lack the tags named with a protein.

Assays:
Assay in all cases: pull-down; RING1B, PCGF1 and RYBP coexpressed in E. coli from one polycistronic plasmid; trimeric complexes affinity purified via 6xHis-tagged RING1B on Ni2+-charged IMAC Sepharose (lysis 20 mM Tris pH 8.0, 500 mM NaCl, 0.1% NP-40; wash 300 mM NaCl, 20 mM imidazole); Coomassie-stained gel
[1] = biological target: RING1B (wild-type), tagged with StrepII and 6xHis tags (mouse) (UniProt Q9CQJ4)
[2] = biological target: RING1B^I53A, tagged with StrepII and 6xHis tags (mouse) (UniProt Q9CQJ4)
[3] = biological target: RING1B^I53A/D56K, tagged with StrepII and 6xHis tags (mouse) (UniProt Q9CQJ4)
[4] = biological target: T1, RING1B^I53A, tagged with StrepII and 6xHis tags (mouse), Q9CQJ4; conditions: remark: other sources report otherwise
T1 chain: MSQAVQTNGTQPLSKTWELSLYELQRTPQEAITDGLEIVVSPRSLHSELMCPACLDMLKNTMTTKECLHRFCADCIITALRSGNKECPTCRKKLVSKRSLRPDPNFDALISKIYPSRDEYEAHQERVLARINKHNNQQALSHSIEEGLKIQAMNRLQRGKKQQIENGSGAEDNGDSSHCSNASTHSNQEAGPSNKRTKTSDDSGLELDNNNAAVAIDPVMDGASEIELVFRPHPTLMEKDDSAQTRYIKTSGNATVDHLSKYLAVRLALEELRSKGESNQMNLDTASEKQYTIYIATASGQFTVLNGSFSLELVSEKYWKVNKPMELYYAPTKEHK

Binder | binding [1] | binding [2] | binding [3] | binding [4]
RYBP (protein, UniProt Q8CCI5 1-228) MTMGDKKSPTRPKRQAKPAADEGFWDCSVCTFRNSAEAFKCSICDVRKGTSTRKPRINSQLVAQQVAQQYATPPPPKKEKKEKVEKPDKEKPEKDKDISPSVTKKNTNKKTKPKSDILKDPPSEANSIQSANATTKTSETNHTSRPRLKNVDRSTAQQLAVTVGNVTVIITDFKEKTRSSSTSSSTVTSSAGSEQQNQSSSGSESTDKGSSRSSTPKGDMSAVNDESF | binds | binds | binds | –
PCGF1, Q8R023 1-259 (protein) MASPQGGQIAIAMRLRNQLQSVYKMDPLRNEEEVRVKIKDLNEHIVCCLCAGYFVDATTITECLHTFCKSCIVKYLQTSKYCPMCNIKIHETQPLLNLKLDRVMQDIVYKLVPGLQDSEEKRIREFYQSRGLDRVSQPSGEEPALSNLGLPFSSFDHSKAHYYRYDEQLSLCLERLSSGKDKNKNVLQNKYVRCSVRAEVRHLRRVLCHRLMLNPQHVQLLFDNEVLPDHMTMKQLWLSRWFGKPSPLLLQYSVKEKRR | – | – | – | binds
PCGF1 (protein, UniProt Q8R023 1-259) MASPQGGQIAIAMRLRNQLQSVYKMDPLRNEEEVRVKIKDLNEHIVCCLCAGYFVDATTITECLHTFCKSCIVKYLQTSKYCPMCNIKIHETQPLLNLKLDRVMQDIVYKLVPGLQDSEEKRIREFYQSRGLDRVSQPSGEEPALSNLGLPFSSFDHSKAHYYRYDEQLSLCLERLSSGKDKNKNVLQNKYVRCSVRAEVRHLRRVLCHRLMLNPQHVQLLFDNEVLPDHMTMKQLWLSRWFGKPSPLLLQYSVKEKRR | – | – | binds | –
